The assay has as its target T1, human CAPRIN-1 protein on cell membrane surfaces of human cancer cells (human) (UniProt Q14444).
T1 sequence (looked up): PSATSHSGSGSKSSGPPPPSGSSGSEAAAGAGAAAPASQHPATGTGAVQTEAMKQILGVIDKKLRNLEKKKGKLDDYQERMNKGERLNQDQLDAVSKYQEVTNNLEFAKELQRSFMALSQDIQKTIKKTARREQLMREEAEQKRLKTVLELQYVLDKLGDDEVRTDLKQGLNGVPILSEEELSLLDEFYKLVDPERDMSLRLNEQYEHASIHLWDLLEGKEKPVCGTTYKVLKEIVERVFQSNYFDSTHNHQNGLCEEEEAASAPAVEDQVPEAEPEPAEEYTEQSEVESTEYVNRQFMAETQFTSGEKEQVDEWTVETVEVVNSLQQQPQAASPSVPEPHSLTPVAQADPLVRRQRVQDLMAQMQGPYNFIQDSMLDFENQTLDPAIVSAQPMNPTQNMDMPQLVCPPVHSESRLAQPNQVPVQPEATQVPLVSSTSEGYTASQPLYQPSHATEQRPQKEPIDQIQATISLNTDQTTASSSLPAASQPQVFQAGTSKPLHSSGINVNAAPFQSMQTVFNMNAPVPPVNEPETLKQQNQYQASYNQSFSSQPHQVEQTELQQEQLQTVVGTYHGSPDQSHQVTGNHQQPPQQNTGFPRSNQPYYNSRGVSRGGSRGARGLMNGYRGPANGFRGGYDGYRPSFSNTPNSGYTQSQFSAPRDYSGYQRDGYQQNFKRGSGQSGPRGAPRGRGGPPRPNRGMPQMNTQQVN
Put plainly: flow cytometry on cancer cells expressing CAPRIN-1. In general terms: A flow cytometer gives signals particle by particle.

No constants are given. Whether binding was seen depends on the method and setting. Some entries that bind do so weakly or less than the wild type.

B1: anti-CAPRIN-1 antibody (z) (antibody, V domains shown)
VH: GPDLVKPGASVKISCKASGYSFTAYYMHWVKQSHGKSLEWIGRVNPNNGGTTYNQKFKGKAILTVDKSSSTAYMELRSLTFEDSAVYYCARRIYYGYFDYWGQGTTVTVSS
VL: AFFAVSLGQRATISCKASQSVDYDGDSYMNWYQQKPGQPPKLLIYVASNLESGVPARFSGSGSGTDFTLNIHPVEEEDAATYYCQQSNEDPYTFGGGTKLEIKQ
As for B1, the binding entry is reported as “binds”.

The record behind these values is patent US20240325529A1, “MEDICAMENT FOR TREATMENT AND/OR PREVENTION OF CANCER” (TORAY INDUSTRIES, INC., priority 2021, published 2024).
